Measured values from the supplement of paper PMC4604168 (melanoma cell lines).
Some of the results follow. Single values are uncertain, as repeats are few or missing.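 Cells were imaged in 1,536-well plates, and nuclei stained with an antibody against cleaved PARP were counted against all DNA-stained nuclei to give the apoptosis fraction. Screening doses were chosen to leave most cells alive, and resting and induced cleaved-PARP levels differ strongly between cell lines.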

Each molecule was assayed on G361 (assay: cleaved PARP positive nuclei fraction relative to DMSO control; melanoma cells; higher = more apoptosis). Settings: library dose: low library concentration; 72 h.

SMILES | cleaved PARP positive nuclei fraction [%]
N#CC[C@H](C1CCCC1)n1cc(-c2ncnc3[nH]ccc23)cn1 [ruxolitinib] + CO[C@H]1C[C@@H]2CC[C@@H](C)[C@@](O)(O2)C(=O)C(=O)N2CCCC[C@H]2C(=O)O[C@H]([C@H](C)C[C@@H]2CC[C@@H](OCCO)[C@H](OC)C2)CC(=O)[C@H](C)/C=C(\C)[C@@H](O)[C@@H](OC)C(=O)[C@H](C)C[C@H](C)/C=C/C=C/C=C/1C [everolimus] (first compound 1 µM, partner dose 0.02 µM) | 171
Cc1ccc(Nc2nccc(N(C)c3ccc4c(C)n(C)nc4c3)n2)cc1S(N)(=O)=O [Pazopanib] + Cn1nnc2c(C(N)=O)ncn2c1=O [temozolomide] (first compound 0.4 µM, partner dose 2 µM) | 175
O=c1[nH]nc(Sc2ncc([N+](=O)[O-])s2)n1-c1ccc2c(c1)OCCO2 + CCCS(=O)(=O)Nc1ccc(F)c(C(=O)c2c[nH]c3ncc(Cl)cc23)c1F [PLX4720] (first compound 0.2 µM, partner dose 0.08 µM) | 191
Cc1ccc(Nc2nccc(N(C)c3ccc4c(C)n(C)nc4c3)n2)cc1S(N)(=O)=O [Pazopanib] + CC(=O)c1c(C)c2cnc(Nc3ccc(N4CCNCC4)cn3)nc2n(C2CCCC2)c1=O [palbociclib] (first compound 0.4 µM, partner dose 0.04 µM) | 96.2
Cc1cn(-c2cc(NC(=O)c3ccc(C)c(Nc4nccc(-c5cccnc5)n4)c3)cc(C(F)(F)F)c2)cn1 [nilotinib] + CN(c1ncccc1CNc1nc(Nc2ccc3c(c2)CC(=O)N3)ncc1C(F)(F)F)S(C)(=O)=O [PF562271] (first compound 0.2 µM, partner dose 0.08 µM) | 86.4
CC[C@]1(O)C[C@H]2CN(CCc3c([nH]c4ccccc34)[C@@](C(=O)OC)(c3cc4c(cc3OC)N(C=O)[C@H]3[C@@](O)(C(=O)OC)[C@H](OC(C)=O)[C@]5(CC)C=CCN6CC[C@]43[C@@H]65)C2)C1 [vincristine] + COCC[n+]1c2c(n(Cc3cnccn3)c1C)C(=O)c1ccccc1C2=O [YM155] (first compound 0.0001 µM, partner dose 0.0004 µM) | 135
Cc1cn(-c2cc(NC(=O)c3ccc(C)c(Nc4nccc(-c5cccnc5)n4)c3)cc(C(F)(F)F)c2)cn1 [nilotinib] + O=C(O)[C@@H]1[O][Sb](=[O])([O][Sb]2(=[O])[O][C@H]([C@H](O)CO)[C@H](O)[C@H](C(=O)O)[O]2)[O][C@H]([C@H](O)CO)[C@@H]1O [stibogluconate] (first compound 0.2 µM, partner dose 2 µM) | 86.7
COc1cc([C@@H]2c3cc4c(cc3[C@@H](O[C@@H]3O[C@@H]5CO[C@@H](C)O[C@H]5[C@H](O)[C@H]3O)[C@H]3COC(=O)[C@H]23)OCO4)cc(OC)c1O [etoposide] + CCCCCCCCCCCCCCCCCCOP(=O)([O-])OC1CC[N+](C)(C)CC1 [Perifosine] (first compound 0.02 µM, partner dose 0.4 µM) | 24.9
O=C(/C=C/c1cccnc1)NCCCCC1CCN(C(=O)c2ccccc2)CC1 + CS(=O)(=O)c1ccc(C(=O)Nc2ccc(Cl)c(-c3ccccn3)c2)c(Cl)c1 [vismodegib] (first compound 0.01 µM, partner dose 1 µM) | 4110
O=C(Nc1cc(C(F)(F)F)cc(C(F)(F)F)c1)c1cc(Cl)ccc1O + CCCCCCCCc1ccc(CCC(N)(CO)CO)cc1 [fingolimod] (first compound 0.016 µM, partner dose 2 µM) | 67
CC[C@]1(O)C[C@H]2CN(CCc3c([nH]c4ccccc34)[C@@](C(=O)OC)(c3cc4c(cc3OC)N(C=O)[C@H]3[C@@](O)(C(=O)OC)[C@H](OC(C)=O)[C@]5(CC)C=CCN6CC[C@]43[C@@H]65)C2)C1 [vincristine] + CCCCCCCCCCCCCCCCCCOP(=O)([O-])OC1CC[N+](C)(C)CC1 [Perifosine] (first compound 0.0001 µM, partner dose 0.4 µM) | 195
Cc1cc(Nc2cc(N3CCN(C)CC3)nc(Sc3ccc(NC(=O)C4CC4)cc3)n2)n[nH]1 [Tozasertib] + C#Cc1cccc(Nc2ncnc3cc(OCCOC)c(OCCOC)cc23)c1 [erlotinib] (first compound 0.006 µM, partner dose 0.8 µM) | 46.7
Cc1cc(Nc2cc(N3CCN(C)CC3)nc(Sc3ccc(NC(=O)C4CC4)cc3)n2)n[nH]1 [Tozasertib] + CO[C@H]1C[C@@H]2CC[C@@H](C)[C@@](O)(O2)C(=O)C(=O)N2CCCC[C@H]2C(=O)O[C@H]([C@H](C)C[C@@H]2CC[C@@H](OCCO)[C@H](OC)C2)CC(=O)[C@H](C)/C=C(\C)[C@@H](O)[C@@H](OC)C(=O)[C@H](C)C[C@H](C)/C=C/C=C/C=C/1C [everolimus] (first compound 0.006 µM, partner dose 0.02 µM) | 141
Cc1ccc(Nc2nccc(N(C)c3ccc4c(C)n(C)nc4c3)n2)cc1S(N)(=O)=O [Pazopanib] + C#Cc1cccc(Nc2ncnc3cc(OCCOC)c(OCCOC)cc23)c1 [erlotinib] (first compound 0.4 µM, partner dose 0.8 µM) | 162
CCCCCCCCCCCCCCCCCCOP(=O)([O-])OC1CC[N+](C)(C)CC1 [Perifosine] + C=C(c1ccc(C(=O)O)cc1)c1cc2c(cc1C)C(C)(C)CCC2(C)C [Bexarotene] (first compound 0.4 µM, partner dose 2 µM) | 229
O=c1[nH]nc(Sc2ncc([N+](=O)[O-])s2)n1-c1ccc2c(c1)OCCO2 + Cc1cc(Nc2cc(N3CCN(C)CC3)nc(/C=C/c3ccccc3)n2)n[nH]1 [ENMD2076] (first compound 0.2 µM, partner dose 0.04 µM) | 39.9
CCCCCCCCCCCCCCCCCCOP(=O)([O-])OC1CC[N+](C)(C)CC1 [Perifosine] + Clc1ccc(Nc2nnc(Cc3ccncc3)c3ccccc23)cc1 [vatalanib] (first compound 0.4 µM, partner dose 2 µM) | 197
Cc1cn(-c2cc(NC(=O)c3ccc(C)c(Nc4nccc(-c5cccnc5)n4)c3)cc(C(F)(F)F)c2)cn1 [nilotinib] + Cn1nnc2c(C(N)=O)ncn2c1=O [temozolomide] (first compound 0.2 µM, partner dose 2 µM) | 189

2 entries from above, in markdown.

| SMILES | cleaved PARP positive nuclei fraction [%] |
| --- | --- |
| Cc1cc(Nc2cc(N3CCN(C)CC3)nc(Sc3ccc(NC(=O)C4CC4)cc3)n2)n[nH]1 [Tozasertib] + CO[C@H]1C[C@@H]2CC[C@@H](C)[C@@](O)(O2)C(=O)C(=O)N2CCCC[C@H]2C(=O)O[C@H]([C@H](C)C[C@@H]2CC[C@@H](OCCO)[C@H](OC)C2)CC(=O)[C@H](C)/C=C(\C)[C@@H](O)[C@@H](OC)C(=O)[C@H](C)C[C@H](C)/C=C/C=C/C=C/1C [everolimus] (first compound 0.006 µM, partner dose 0.02 µM) | 141 |
| Cc1ccc(Nc2nccc(N(C)c3ccc4c(C)n(C)nc4c3)n2)cc1S(N)(=O)=O [Pazopanib] + C#Cc1cccc(Nc2ncnc3cc(OCCOC)c(OCCOC)cc23)c1 [erlotinib] (first compound 0.4 µM, partner dose 0.8 µM) | 162 |
